According to article PMC8298264, “Function of cofactor Akirin2 in the regulation of gene expression in model human neutrophil-like HL60 cells” (Bioscience Reports, 2021):

B1: sp¦Q12788¦TBL3_HUMAN (protein, UniProt Q12788 2-808, looked up)
Transducin beta-like protein 3: AETAAGVGRFKTNYAVERKIEPFYKGGKAQLDQTGQHLFCVCGTRVNILEVASGAVLRSLEQEDQEDITAFDLSPDNEVLVTASRALLLAQWAWQEGSVTRLWKAIHTAPVATMAFDPTSTLLATGGCDGAVRVWDIVRHYGTHHFRGSPGVVHLVAFHPDPTRLLLFSSATDAAIRVWSLQDRSCLAVLTAHYSAVTSLAFSADGHTMLSSGRDKICIIWDLQSCQATRTVPVFESVEAAVLLPEEPVSQLGVKSPGLYFLTAGDQGTLRVWEAASGQCVYTQAQPPGPGQELTHCTLAHTAGVVLTATADHNLLLYEARSLRLQKQFAGYSEEVLDVRFLGPEDSHVVVASNSPCLKVFELQTSACQILHGHTDIVLALDVFRKGWLFASCAKDQSVRIWRMNKAGQVMCVAQGSGHTHSVGTVCCSRLKESFLVTGSQDCTVKLWPLPKALLSKNTAPDNGPILLQAQTTQRCHDKDINSVAIAPNDKLLATGSQDRTAKLWALPQCQLLGVFSGHRRGLWCVQFSPMDQVLATASADGTIKLWALQDFSCLKTFEGHDASVLKVAFVSRGTQLLSSGSDGLVKLWTIKNNECVRTLDAHEDKVWGLHCSRLDDHALTGASDSRVILWKDVTEAEQAEEQARQEEQVVRQQELDNLLHEKRYLRALGLAISLDRPHTVLTVIQAIRRDPEACEKLEATMLRLRRDQKEALLRFCVTWNTNSRHCHEAQAVLGVLLRREAPEELLAYEGVRAALEALLPYTERHFQRLSRTLQAAAFLDFLWHNMKLPVPAAAPTPWETHKGALP
B2: sp¦P25705¦ATPA_HUMAN (protein, UniProt P25705 44-553, looked up)
ATP synthase F(1) complex …: QKTGTAEMSSILEERILGADTSVDLEETGRVLSIGDGIARVHGLRNVQAEEMVEFSSGLKGMSLNLEPDNVGVVVFGNDKLIKEGDIVKRTGAIVDVPVGEELLGRVVDALGNAIDGKGPIGSKTRRRVGLKAPGIIPRISVREPMQTGIKAVDSLVPIGRGQRELIIGDRQTGKTSIAIDTIINQKRFNDGSDEKKKLYCIYVAIGQKRSTVAQLVKRLTDADAMKYTIVVSATASDAAPLQYLAPYSGCSMGEYFRDNGKHALIIYDDLSKQAVAYRQMSLLLRRPPGREAYPGDVFYLHSRLLERAAKMNDAFGGGSLTALPVIETQAGDVSAYIPTNVISITDGQIFLETELFYKGIRPAINVGLSVSRVGSAAQTRAMKQVAGTMKLELAQYREVAAFAQFGSDLDAATQQLLSRGVRLTELLKQGQYSPMAIEEQVAVIYAGVRGYLDKLEPSKITKFENAFLSHVVSQHQALLGTIRADGKISEQSDAKLKEIVTNFLAGFEA
B3: sp¦Q9Y285¦SYFA_HUMAN (protein, UniProt Q9Y285 2-508, looked up)
Phenylalanine--tRNA ligase …: ADGQVAELLLRRLEASDGGLDSAELAAELGMEHQAVVGAVKSLQALGEVIEAELRSTKHWELTAEGEEIAREGSHEARVFRSIPPEGLAQSELMRLPSGKVGFSKAMSNKWIRVDKSAADGPRVFRVVDSMEDEVQRRLQLVRGGQAEKLGEKERSELRKRKLLAEVTLKTYWVSKGSAFSTSISKQETELSPEMISSGSWRDRPFKPYNFLAHGVLPDSGHLHPLLKVRSQFRQIFLEMGFTEMPTDNFIESSFWNFDALFQPQQHPARDQHDTFFLRDPAEALQLPMDYVQRVKRTHSQGGYGSQGYKYNWKLDEARKNLLRTHTTSASARALYRLAQKKPFTPVKYFSIDRVFRNETLDATHLAEFHQIEGVVADHGLTLGHLMGVLREFFTKLGITQLRFKPAYNPYTEPSMEVFSYHQGLKKWVEVGNSGVFRPEMLLPMGLPENVSVIAWGLSLERPTMIKYGINNIRELVGHKVNLQMVYDSPLCRLDAEPRPPPTQEAA
B4: sp¦O00232¦PSD12_HUMAN (protein, UniProt O00232 2-456, looked up)
26S proteasome non-ATPase …: ADGGSERADGRIVKMEVDYSATVDQRLPECAKLAKEGRLQEVIETLLSLEKQTRTASDMVSTSRILVAVVKMCYEAKEWDLLNENIMLLSKRRSQLKQAVAKMVQQCCTYVEEITDLPIKLRLIDTLRMVTEGKIYVEIERARLTKTLATIKEQNGDVKEAASILQELQVETYGSMEKKERVEFILEQMRLCLAVKDYIRTQIISKKINTKFFQEENTEKLKLKYYNLMIQLDQHEGSYLSICKHYRAIYDTPCIQAESEKWQQALKSVVLYVILAPFDNEQSDLVHRISGDKKLEEIPKYKDLLKLFTTMELMRWSTLVEDYGMELRKGSLESPATDVFGSTEEGEKRWKDLKNRVVEHNIRIMAKYYTRITMKRMAQLLDLSVDESEAFLSNLVVNKTIFAKVDRLAGIINFQRPKDPNNLLNDWSQKLNSLMSLVNKTTHLIAKEEMIHNLQ
B5: sp¦P04843¦RPN1_HUMAN (protein, UniProt P04843 24-607, looked up)
Dolichyl-diphosphooligosacchar …: ASSEAPPLINEDVKRTVDLSSHLAKVTAEVVLAHLGGGSTSRATSFLLALEPELEARLAHLGVQVKGEDEEENNLEVRETKIKGKSGRFFTVKLPVALDPGAKISVIVETVYTHVLHPYPTQITQSEKQFVVFEGNHYFYSPYPTKTQTMRVKLASRNVESYTKLGNPTRSEDLLDYGPFRDVPAYSQDTFKVHYENNSPFLTITSMTRVIEVSHWGNIAVEENVDLKHTGAVLKGPFSRYDYQRQPDSGISSIRSFKTILPAAAQDVYYRDEIGNVSTSHLLILDDSVEMEIRPRFPLFGGWKTHYIVGYNLPSYEYLYNLGDQYALKMRFVDHVFDEQVIDSLTVKIILPEGAKNIEIDSPYEISRAPDELHYTYLDTFGRPVIVAYKKNLVEQHIQDIVVHYTFNKVLMLQEPLLVVAAFYILFFTVIIYVRLDFSITKDPAAEARMKVACITEQVLTLVNKRIGLYRHFDETVNRYKQSRDISTLNSGKKSLETEHKALTSEIALLQSRLKTEGSDLCDRVSEMQKLDAQVKELVLKSAVEAERLVAGKLKKDTYIENEKLISGKRQELVTKIDHILDAL
B6: sp¦Q4VC31¦CCD58_HUMAN (protein, UniProt Q4VC31 2-144, looked up)
Protein MIX23: AAPSGGVNCEEFAEFQELLKVMRTIDDRIVHELNTTVPTASFAGKIDASQTCKQLYESLMAAHASRDRVIKNCIAQTSAVVKNLREEREKNLDDLTLLKQLRKEQTKLKWMQSELNVEEVVNDRSWKVFNERCRIHFKPPKNE
B7: sp¦Q03252¦LMNB2_HUMAN (protein, UniProt Q03252 1-617, looked up)
Lamin-B2: MSPPSPGRRREQRRPRAAATMATPLPGRAGGPATPLSPTRLSRLQEKEELRELNDRLAHYIDRVRALELENDRLLLKISEKEEVTTREVSGIKALYESELADARRVLDETARERARLQIEIGKLRAELDEVNKSAKKREGELTVAQGRVKDLESLFHRSEVELAAALSDKRGLESDVAELRAQLAKAEDGHAVAKKQLEKETLMRVDLENRCQSLQEELDFRKSVFEEEVRETRRRHERRLVEVDSSRQQEYDFKMAQALEELRSQHDEQVRLYKLELEQTYQAKLDSAKLSSDQNDKAASAAREELKEARMRLESLSYQLSGLQKQASAAEDRIRELEEAMAGERDKFRKMLDAKEQEMTEMRDVMQQQLAEYQELLDVKLALDMEINAYRKLLEGEEERLKLSPSPSSRVTVSRATSSSSGSLSATGRLGRSKRKRLEVEEPLGSGPSVLGTGTGGSGGFHLAQQASASGSVSIEEIDLEGKFVQLKNNSDKDQSLGNWRIKRQVLEGEEIAYKFTPKYILRAGQMVTVWAAGAGVAHSPPSTLVWKGQSSWGTGESFRTVLVNADGEEVAMRTVKKSSVMRENENGEEEEEEAEFGEEDLFHQQGDPRTTSRGC
B8: sp¦O00754¦MA2B1_HUMAN (protein, UniProt O00754 50-1011, looked up)
Lysosomal alpha-mannosidase: GGYETCPTVQPNMLNVHLLPHTHDDVGWLKTVDQYFYGIKNDIQHAGVQYILDSVISALLADPTRRFIYVEIAFFSRWWHQQTNATQEVVRDLVRQGRLEFANGGWVMNDEAATHYGAIVDQMTLGLRFLEDTFGNDGRPRVAWHIDPFGHSREQASLFAQMGFDGFFFGRLDYQDKWVRMQKLEMEQVWRASTSLKPPTADLFTGVLPNGYNPPRNLCWDVLCVDQPLVEDPRSPEYNAKELVDYFLNVATAQGRYYRTNHTVMTMGSDFQYENANMWFKNLDKLIRLVNAQQAKGSSVHVLYSTPACYLWELNKANLTWSVKHDDFFPYADGPHQFWTGYFSSRPALKRYERLSYNFLQVCNQLEALVGLAANVGPYGSGDSAPLNEAMAVLQHHDAVSGTSRQHVANDYARQLAAGWGPCEVLLSNALARLRGFKDHFTFCQQLNISICPLSQTAARFQVIVYNPLGRKVNWMVRLPVSEGVFVVKDPNGRTVPSDVVIFPSSDSQAHPPELLFSASLPALGFSTYSVAQVPRWKPQARAPQPIPRRSWSPALTIENEHIRATFDPDTGLLMEIMNMNQQLLLPVRQTFFWYNASIGDNESDQASGAYIFRPNQQKPLPVSRWAQIHLVKTPLVQEVHQNFSAWCSQVVRLYPGQRHLELEWSVGPIPVGDTWGKEVISRFDTPLETKGRFYTDSNGREILERRRDYRPTWKLNQTEPVAGNYYPVNTRIYITDGNMQLTVLTDRSQGGSSLRDGSLELMVHRRLLKDDGRGVSEPLMENGSGAWVRGRHLVLLDTAQAAAAGHRLLAEQEVLAPQVVLAPGGGAAYNLGAPPRTQFSGLRRDLPPSVHLLTLASWGPEMVLLRLEHQFAVGEDSGRNLSAPVTLNLRDLFSTFTITRLQETTLVANQLREAASRLKWTTNTGPTPHQTPYQLDPANITLEPMEIRTFLASVQWKEVDG
B9: sp¦P00491¦PNPH_HUMAN (protein, UniProt P00491 1-289, looked up)
Purine nucleoside …: MENGYTYEDYKNTAEWLLSHTKHRPQVAIICGSGLGGLTDKLTQAQIFDYGEIPNFPRSTVPGHAGRLVFGFLNGRACVMMQGRFHMYEGYPLWKVTFPVRVFHLLGVDTLVVTNAAGGLNPKFEVGDIMLIRDHINLPGFSGQNPLRGPNDERFGDRFPAMSDAYDRTMRQRALSTWKQMGEQRELQEGTYVMVAGPSFETVAECRVLQKLGADAVGMSTVPEVIVARHCGLRVFGFSLITNKVIMDYESLEKANHEEVLAAGKQAAQKLEQFVSILMASIPLPDKAS
B10: sp¦Q9UQ80¦PA2G4_HUMAN (protein, UniProt Q9UQ80 2-394, looked up)
Proliferation-associated …: SGEDEQQEQTIAEDLVVTKYKMGGDIANRVLRSLVEASSSGVSVLSLCEKGDAMIMEETGKIFKKEKEMKKGIAFPTSISVNNCVCHFSPLKSDQDYILKEGDLVKIDLGVHVDGFIANVAHTFVVDVAQGTQVTGRKADVIKAAHLCAEAALRLVKPGNQNTQVTEAWNKVAHSFNCTPIEGMLSHQLKQHVIDGEKTIIQNPTDQQKKDHEKAEFEVHEVYAVDVLVSSGEGKAKDAGQRTTIYKRDPSKQYGLKMKTSRAFFSEVERRFDAMPFTLRAFEDEKKARMGVVECAKHELLQPFNVLYEKEGEFVAQFKFTVLLMPNGPMRITSGPFEPDLYKSEMEVQDAELKALLQSSASRKTQKKKKKKASKTAENATSGETLEENEAGD

system: human HL60 cells; test: SWATH-MS proteomics, differential protein representation, akirin2 KO vs WT HL60 cells; format: cell-based; conditions: KO vs WT HL60 cells; sheet "Under-represented in KO"
Outline: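 Three biological replicates per genotype; 150 µg protein FASP/trypsin digested; IDA library (3 µg digest); SWATH variable windows, 5 µg/sample, 3.6 s cycle; gradient 5–30% B 120 min then 30–60% B 15 min; 1% global FDR; TAS normalization.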

Molecule	Fold Change	Log (Fold Change)
B1	0.8625	-0.06425
B2	0.8658	-0.06257
B3	0.8661	-0.06244
B4	0.8671	-0.06191
B5	0.8709	-0.06003
B6	0.8752	-0.05789
B7	0.8796	-0.0557
B8	0.8819	-0.0546
B9	0.8871	-0.05205
B10	0.888	-0.05159
